In experiment [1] the target is MAVS (endogenous) (human (endogenous in HepG2, HepG2.2.15, Huh7)) (UniProt Q7Z434). Description: affinity purification with mass spectrometry; protein mixtures containing KNG1 and MAVS identified by LC/MS; proteins enriched by both MAVS and KNG1.
Experiment [2] concerns the target KNG1-Flag (pcDNA3.1-KNG1-3 × Flag) (human) (UniProt P01042). Described as above.

The chains behind the UniProt entries cited, without tags or fusion partners. Residues count along the entry.
UniProt Q7Z434: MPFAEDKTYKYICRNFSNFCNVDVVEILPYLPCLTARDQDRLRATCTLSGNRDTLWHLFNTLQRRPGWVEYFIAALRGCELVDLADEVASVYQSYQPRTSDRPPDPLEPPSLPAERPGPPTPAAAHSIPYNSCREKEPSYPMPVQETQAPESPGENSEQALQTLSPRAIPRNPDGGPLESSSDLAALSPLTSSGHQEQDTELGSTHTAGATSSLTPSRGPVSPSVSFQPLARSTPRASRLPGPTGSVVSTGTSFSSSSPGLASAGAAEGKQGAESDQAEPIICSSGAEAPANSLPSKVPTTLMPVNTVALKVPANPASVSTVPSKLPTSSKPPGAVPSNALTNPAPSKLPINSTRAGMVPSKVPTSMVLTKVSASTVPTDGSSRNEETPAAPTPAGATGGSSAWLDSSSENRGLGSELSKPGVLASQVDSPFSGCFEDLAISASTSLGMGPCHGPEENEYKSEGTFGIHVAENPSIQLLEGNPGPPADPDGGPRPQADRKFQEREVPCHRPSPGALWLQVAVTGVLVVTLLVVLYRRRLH
UniProt P01042, residues 19-644: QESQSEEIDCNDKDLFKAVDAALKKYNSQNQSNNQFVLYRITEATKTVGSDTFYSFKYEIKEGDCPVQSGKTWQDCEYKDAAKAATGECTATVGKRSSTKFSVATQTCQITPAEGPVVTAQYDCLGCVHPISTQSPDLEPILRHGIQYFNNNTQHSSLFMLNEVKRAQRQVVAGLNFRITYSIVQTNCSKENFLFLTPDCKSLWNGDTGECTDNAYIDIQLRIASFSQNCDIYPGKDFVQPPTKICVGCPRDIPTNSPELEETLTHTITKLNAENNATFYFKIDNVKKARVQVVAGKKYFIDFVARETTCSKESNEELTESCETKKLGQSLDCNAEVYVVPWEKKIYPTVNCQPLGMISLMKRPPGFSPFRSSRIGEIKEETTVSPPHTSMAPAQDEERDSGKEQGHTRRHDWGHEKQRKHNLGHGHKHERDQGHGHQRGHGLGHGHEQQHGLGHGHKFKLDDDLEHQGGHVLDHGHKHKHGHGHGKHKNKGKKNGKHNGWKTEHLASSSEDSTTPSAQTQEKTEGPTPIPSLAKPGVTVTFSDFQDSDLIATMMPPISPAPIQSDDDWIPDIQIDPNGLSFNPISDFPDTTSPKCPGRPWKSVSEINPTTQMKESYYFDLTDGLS
UniProt Q07065: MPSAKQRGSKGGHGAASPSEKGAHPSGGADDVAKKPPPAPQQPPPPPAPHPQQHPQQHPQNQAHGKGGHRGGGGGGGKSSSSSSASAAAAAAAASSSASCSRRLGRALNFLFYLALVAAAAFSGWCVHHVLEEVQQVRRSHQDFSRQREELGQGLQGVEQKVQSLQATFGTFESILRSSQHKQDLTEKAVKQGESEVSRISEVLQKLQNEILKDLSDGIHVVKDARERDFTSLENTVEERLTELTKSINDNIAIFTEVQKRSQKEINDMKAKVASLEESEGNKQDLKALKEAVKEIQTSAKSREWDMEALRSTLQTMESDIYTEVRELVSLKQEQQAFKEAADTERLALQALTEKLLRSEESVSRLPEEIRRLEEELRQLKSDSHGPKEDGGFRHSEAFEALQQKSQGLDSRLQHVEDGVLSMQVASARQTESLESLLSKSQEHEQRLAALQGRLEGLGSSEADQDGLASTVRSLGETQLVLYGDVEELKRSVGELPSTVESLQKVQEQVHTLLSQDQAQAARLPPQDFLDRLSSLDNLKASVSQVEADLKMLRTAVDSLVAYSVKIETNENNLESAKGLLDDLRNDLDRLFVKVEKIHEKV
UniProt P26641: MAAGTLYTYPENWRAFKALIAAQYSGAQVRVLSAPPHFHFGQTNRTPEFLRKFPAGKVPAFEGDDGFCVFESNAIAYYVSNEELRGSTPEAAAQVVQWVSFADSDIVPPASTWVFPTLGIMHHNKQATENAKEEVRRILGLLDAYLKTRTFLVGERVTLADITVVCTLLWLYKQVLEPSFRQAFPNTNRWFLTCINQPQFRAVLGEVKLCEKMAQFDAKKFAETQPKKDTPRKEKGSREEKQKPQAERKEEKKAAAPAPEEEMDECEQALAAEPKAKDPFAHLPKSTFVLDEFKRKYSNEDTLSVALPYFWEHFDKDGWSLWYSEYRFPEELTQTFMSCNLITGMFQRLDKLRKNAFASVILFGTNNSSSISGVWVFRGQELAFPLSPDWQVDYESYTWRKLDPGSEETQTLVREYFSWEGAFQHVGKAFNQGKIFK
UniProt P11021, residues 19-654: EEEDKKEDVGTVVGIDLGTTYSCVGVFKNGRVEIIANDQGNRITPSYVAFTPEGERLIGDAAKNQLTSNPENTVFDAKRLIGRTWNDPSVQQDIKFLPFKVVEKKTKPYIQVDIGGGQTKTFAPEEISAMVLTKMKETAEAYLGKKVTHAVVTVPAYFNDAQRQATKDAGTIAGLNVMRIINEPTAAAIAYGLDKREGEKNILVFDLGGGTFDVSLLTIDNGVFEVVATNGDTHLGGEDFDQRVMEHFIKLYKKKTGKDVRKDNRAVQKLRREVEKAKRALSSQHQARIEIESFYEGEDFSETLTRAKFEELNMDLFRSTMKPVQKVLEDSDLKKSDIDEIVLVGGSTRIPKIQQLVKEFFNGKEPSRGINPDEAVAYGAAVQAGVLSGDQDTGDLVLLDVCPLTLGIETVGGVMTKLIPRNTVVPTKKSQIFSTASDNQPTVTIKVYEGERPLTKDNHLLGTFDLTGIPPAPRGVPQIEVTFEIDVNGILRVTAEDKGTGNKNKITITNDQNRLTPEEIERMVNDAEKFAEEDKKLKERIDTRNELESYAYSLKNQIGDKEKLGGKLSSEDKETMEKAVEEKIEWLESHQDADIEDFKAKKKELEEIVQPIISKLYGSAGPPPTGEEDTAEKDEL

For four substances, binding results are on record in paper PMC10435766.

No constants are given. Whether binding was seen depends on the method and setting. In cells and extracts the contact can be indirect. A yes stands for co-enrichment or nearness to the bait. Other partners may have been found.

For the substance CKAP4 (from UniProt Q07065 1-602), the binding entry in experiment [1] and in experiment [2] was “binds” throughout.
For EEF1G (from UniProt P26641 1-437), the binding result in experiment [1] and in experiment [2] was “binds” in each case.
“HSP90A (endogenous) (from UniProt P07900 1-732)”: the binding entry in experiment [1] and in experiment [2] was “binds” each time.
Turning to HSPA5 (from UniProt P11021 19-654), the binding entry in experiment [1] and in experiment [2] was “binds” each time.
